Results are given in words; binding and its absence hold for the method and conditions named.
Target: full length human Ino80 subunit (human) (UniProt Q9ULG1)
Experiment: co-purification of a recombinant complex; Coomassie-stained SDS gel of the purified full length recombinant human INO80 complex; subunit identities confirmed by Western blotting; bait not stated

Sequences of proteins named here, by UniProt entry; tags and fusion partners are left off.
UniProt Q96EZ8: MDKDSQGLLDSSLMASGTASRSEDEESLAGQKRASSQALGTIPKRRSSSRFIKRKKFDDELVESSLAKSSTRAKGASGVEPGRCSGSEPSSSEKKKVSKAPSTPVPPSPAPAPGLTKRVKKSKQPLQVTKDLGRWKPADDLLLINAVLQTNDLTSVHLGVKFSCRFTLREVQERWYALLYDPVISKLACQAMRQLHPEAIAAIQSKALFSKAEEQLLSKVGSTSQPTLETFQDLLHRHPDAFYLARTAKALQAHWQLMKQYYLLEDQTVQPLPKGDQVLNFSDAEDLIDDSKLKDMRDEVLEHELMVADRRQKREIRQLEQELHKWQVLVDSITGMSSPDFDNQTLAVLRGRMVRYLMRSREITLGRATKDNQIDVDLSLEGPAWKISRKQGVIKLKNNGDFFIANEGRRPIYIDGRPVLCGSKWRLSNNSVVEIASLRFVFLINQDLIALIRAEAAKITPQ

binding: no binding
Substance: MCRS1 (from UniProt Q96EZ8 1-462)

— paper PMC5472440
